This is one part of the list.
Key:
Experiment in all cases: log2 fold change, soluble protein after heating vs DMSO (PISA); higher = thermal stabilisation; K562 cells, 10 uM, 30 min; active = over 0.2 and 3.5 SD of the protein, either way, in both replicates (recomputed)
[1] = compound: CC[C@@H]1C(=O)N(C)c2cnc(Nc3ccc(C(=O)N[C@H]4CC[C@H](N5CCN(CC6CC6)CC5)CC4)cc3OC)nc2N1C(C)C [volasertib]
Procedure, shortened: (§1)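 K562 cells at 2×10^6 cells/mL were treated for 30 min with 10 μM compound, and aliquots were heated for 3 min over 48°C-58°C before pooling. Extraction used PBS with 0.5% NP-40 at 4°C, and soluble protein was the supernatant after 21,000xg for 90 min, measured by TMTpro 16plex LC-MS/MS with channel sums equalised. Thermal stability values, relative to control samples and from duplicates, are log2 fold changes.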

Sequences of proteins named here, by UniProt entry; tags and fusion partners are left off. A change or cut given only in a name is not applied to a line headed by its entry.
UniProt O95402: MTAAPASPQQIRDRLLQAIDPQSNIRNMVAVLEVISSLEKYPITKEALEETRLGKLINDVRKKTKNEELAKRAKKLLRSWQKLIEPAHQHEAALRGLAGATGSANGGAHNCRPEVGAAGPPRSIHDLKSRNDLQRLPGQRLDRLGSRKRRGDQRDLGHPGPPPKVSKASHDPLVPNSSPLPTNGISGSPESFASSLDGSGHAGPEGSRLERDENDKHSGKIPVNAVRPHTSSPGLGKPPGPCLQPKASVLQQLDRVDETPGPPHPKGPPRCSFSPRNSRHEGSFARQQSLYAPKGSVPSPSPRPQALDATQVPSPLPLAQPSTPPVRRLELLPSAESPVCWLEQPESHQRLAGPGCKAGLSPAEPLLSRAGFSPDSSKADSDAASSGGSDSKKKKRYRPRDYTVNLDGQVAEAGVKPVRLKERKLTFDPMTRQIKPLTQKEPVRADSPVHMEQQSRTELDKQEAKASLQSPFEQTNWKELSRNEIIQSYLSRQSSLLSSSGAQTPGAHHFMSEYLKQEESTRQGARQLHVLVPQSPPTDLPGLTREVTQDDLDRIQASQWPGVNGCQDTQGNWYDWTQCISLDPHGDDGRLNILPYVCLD
UniProt Q9NWA0: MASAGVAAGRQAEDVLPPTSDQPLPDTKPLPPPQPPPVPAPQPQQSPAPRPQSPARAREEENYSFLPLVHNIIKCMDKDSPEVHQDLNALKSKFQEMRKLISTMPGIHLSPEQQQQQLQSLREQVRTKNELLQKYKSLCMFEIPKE
UniProt Q9P086: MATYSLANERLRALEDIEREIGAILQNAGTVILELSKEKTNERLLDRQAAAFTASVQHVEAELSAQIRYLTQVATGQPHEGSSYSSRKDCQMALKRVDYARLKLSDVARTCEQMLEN
UniProt Q9UBB5, whole entry, looked up: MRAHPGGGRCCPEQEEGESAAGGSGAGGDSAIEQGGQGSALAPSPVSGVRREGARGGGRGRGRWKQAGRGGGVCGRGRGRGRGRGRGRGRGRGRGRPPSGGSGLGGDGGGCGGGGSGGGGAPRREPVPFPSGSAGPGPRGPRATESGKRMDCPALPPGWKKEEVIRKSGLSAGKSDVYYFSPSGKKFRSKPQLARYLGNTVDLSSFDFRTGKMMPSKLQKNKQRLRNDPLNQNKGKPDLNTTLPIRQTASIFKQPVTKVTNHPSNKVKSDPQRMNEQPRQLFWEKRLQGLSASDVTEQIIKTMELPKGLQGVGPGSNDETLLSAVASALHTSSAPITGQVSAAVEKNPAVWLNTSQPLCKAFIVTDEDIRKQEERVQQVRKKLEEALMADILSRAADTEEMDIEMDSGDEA
UniProt Q5VZF2: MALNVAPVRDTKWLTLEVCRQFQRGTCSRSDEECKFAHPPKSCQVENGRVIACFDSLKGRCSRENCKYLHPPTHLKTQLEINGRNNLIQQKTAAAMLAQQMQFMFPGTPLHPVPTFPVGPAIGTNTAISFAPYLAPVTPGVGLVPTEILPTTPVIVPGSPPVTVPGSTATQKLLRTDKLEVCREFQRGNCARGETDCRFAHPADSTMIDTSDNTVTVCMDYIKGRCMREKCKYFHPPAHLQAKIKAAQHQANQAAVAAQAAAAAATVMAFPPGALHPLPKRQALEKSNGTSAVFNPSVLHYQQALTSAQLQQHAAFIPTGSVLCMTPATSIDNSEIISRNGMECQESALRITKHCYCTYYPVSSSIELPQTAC
UniProt Q7Z7M0: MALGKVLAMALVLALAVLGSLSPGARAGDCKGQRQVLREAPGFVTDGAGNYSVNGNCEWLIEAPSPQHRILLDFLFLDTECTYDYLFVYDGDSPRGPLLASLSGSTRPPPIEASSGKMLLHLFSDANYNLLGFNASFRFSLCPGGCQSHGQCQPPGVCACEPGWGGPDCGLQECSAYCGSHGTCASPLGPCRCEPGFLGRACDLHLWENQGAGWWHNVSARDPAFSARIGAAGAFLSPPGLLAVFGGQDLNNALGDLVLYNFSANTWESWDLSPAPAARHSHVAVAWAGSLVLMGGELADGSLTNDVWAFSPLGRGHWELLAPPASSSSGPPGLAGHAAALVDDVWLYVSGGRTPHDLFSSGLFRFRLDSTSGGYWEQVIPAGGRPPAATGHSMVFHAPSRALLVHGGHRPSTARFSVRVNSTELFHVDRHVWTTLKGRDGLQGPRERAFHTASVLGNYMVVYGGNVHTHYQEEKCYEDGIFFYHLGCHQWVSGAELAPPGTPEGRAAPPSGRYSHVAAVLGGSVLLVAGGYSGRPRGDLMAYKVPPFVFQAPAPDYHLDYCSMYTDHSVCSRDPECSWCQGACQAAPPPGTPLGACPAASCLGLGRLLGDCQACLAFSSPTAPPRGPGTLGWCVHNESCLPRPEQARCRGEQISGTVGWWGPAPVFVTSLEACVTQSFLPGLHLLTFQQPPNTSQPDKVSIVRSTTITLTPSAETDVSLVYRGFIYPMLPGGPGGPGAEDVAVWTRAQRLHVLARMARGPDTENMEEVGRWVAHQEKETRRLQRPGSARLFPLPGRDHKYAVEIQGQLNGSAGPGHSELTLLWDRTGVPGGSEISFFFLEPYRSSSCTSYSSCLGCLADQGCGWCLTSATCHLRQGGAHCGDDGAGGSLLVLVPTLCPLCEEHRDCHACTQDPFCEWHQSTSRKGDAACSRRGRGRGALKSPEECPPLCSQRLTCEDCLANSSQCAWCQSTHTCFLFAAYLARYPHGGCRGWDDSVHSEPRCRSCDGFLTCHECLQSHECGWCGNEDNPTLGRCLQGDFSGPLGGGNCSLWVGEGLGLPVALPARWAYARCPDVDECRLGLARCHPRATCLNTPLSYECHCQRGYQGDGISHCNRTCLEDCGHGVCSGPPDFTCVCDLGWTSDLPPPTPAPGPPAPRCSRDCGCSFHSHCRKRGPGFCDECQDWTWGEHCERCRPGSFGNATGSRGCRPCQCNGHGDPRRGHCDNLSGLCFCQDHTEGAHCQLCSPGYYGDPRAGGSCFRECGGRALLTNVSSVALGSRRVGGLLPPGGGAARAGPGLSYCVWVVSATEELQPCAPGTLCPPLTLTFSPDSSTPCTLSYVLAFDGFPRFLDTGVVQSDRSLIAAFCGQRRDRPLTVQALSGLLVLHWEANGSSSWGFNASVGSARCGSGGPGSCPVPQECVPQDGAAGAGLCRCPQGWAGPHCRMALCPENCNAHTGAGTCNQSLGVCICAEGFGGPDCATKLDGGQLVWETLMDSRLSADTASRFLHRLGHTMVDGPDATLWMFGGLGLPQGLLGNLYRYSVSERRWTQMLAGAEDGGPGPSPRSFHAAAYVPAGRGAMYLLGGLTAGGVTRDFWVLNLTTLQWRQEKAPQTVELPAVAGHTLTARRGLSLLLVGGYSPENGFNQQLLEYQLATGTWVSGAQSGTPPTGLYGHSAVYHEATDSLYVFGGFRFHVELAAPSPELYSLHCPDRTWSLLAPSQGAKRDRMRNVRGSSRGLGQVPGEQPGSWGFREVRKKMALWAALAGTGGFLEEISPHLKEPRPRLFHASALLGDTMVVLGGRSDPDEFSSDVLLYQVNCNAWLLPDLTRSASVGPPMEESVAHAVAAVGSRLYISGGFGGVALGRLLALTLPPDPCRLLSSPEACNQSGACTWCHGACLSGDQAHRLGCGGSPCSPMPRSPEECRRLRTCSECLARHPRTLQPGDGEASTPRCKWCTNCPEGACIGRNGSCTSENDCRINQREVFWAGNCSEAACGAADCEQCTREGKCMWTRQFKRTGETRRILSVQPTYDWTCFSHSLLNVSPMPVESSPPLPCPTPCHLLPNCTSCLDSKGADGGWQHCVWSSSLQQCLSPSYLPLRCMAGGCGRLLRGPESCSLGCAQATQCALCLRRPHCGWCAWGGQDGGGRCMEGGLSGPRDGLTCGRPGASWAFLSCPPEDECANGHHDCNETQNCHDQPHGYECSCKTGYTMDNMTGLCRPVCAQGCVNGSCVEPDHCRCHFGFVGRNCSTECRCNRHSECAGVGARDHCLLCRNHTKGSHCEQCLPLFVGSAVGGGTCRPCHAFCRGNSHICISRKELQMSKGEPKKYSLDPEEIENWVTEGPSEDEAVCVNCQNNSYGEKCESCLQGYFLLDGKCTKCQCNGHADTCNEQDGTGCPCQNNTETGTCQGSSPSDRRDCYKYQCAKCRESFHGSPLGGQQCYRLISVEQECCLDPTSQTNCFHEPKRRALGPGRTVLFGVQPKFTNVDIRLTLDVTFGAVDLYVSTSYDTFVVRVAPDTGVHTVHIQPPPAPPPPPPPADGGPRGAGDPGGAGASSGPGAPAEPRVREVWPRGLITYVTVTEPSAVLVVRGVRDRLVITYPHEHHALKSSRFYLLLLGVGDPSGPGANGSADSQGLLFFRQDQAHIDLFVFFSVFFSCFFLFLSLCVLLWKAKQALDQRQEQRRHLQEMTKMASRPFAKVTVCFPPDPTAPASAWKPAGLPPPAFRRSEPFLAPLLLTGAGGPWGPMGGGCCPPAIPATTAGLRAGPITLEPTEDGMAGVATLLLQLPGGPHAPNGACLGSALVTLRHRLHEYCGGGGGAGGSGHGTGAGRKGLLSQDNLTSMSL
UniProt O60291: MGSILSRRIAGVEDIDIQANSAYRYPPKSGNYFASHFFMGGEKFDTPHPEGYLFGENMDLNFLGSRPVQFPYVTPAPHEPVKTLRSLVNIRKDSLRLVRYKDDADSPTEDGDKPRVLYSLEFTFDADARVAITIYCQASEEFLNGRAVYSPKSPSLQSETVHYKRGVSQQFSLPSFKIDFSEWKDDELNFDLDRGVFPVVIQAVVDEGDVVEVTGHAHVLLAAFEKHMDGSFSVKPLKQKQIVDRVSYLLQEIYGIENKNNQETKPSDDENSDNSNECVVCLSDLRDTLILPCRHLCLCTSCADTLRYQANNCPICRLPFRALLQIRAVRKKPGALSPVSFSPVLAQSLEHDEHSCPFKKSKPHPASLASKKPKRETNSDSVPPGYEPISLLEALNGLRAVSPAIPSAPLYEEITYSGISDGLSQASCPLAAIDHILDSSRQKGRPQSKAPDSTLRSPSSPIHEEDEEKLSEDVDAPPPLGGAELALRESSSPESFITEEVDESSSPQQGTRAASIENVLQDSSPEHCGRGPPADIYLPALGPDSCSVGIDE
UniProt Q6P1Q9: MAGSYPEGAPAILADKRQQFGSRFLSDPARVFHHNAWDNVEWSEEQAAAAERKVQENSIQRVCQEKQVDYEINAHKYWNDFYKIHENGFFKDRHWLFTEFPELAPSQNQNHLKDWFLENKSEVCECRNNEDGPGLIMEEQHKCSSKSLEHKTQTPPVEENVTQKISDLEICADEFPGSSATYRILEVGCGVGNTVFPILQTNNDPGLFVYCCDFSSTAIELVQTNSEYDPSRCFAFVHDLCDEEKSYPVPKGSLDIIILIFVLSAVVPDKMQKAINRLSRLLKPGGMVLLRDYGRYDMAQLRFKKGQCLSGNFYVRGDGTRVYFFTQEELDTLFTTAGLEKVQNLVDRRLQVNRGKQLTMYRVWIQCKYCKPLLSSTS
UniProt O14770: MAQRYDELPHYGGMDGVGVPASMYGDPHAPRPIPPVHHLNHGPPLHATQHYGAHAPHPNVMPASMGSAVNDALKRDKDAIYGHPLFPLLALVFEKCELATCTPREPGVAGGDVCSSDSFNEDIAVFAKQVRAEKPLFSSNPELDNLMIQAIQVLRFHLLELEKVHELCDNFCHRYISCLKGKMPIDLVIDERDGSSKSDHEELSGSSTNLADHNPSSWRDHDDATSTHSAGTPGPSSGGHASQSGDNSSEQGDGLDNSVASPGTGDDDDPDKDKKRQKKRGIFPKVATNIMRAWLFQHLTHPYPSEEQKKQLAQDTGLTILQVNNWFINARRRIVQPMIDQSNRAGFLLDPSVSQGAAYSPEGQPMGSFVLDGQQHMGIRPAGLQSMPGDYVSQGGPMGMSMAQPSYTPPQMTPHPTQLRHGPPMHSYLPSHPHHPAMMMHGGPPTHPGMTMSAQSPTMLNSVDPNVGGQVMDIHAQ
UniProt P48740: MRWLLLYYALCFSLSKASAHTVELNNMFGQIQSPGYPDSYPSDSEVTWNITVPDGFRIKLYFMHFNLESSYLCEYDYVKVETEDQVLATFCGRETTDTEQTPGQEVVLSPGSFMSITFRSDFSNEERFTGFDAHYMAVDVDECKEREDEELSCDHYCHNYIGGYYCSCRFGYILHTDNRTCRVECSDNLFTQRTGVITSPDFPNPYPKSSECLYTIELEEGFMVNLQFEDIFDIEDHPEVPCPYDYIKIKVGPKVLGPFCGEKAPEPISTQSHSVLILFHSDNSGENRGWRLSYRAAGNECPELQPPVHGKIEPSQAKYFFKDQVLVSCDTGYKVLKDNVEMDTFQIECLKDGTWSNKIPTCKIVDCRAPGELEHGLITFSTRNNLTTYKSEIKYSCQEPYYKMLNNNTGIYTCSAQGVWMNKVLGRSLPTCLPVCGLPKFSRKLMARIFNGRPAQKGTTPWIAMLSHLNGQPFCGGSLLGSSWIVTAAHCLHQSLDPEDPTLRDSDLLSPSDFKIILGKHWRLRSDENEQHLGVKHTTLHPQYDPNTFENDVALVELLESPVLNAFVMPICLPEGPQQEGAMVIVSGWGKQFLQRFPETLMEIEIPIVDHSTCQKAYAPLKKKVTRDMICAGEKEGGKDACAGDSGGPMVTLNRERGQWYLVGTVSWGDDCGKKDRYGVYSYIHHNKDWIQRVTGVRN

[2] = compound: CCn1cc(-c2ccnc3[nH]c(-c4cccc(CN(C)C)c4)cc23)c(-c2ccc(NC(=O)N(C)C)cc2)n1
Procedure, shortened: as §1

[3] = compound: CN(C)CC(=O)Nc1ccc2[nH]c(=O)c3ccccc3c2c1
Procedure, shortened: as §1

[4] = compound: CN1C2=C(C3=C1C(=O)N(N=C3)CC4=CC(=CC=C4)N)SC(=C2)S(=O)C
Procedure, shortened: as §1

[5] = compound: CN1CCC(CNc2ccc3ncc(-c4cccc(OC(F)(F)F)c4)n3n2)CC1
Procedure, shortened: as §1

[6] = compound: CN1CCN(CCOc2cc(OC3CCOCC3)c3c(Nc4c(Cl)ccc5c4OCO5)ncnc3c2)CC1 [saracatinib]
Procedure, shortened: as §1

[7] = compound: CN1CCN(c2nc(C3=C(c4c[nH]c5ccccc45)C(=O)NC3=O)c3ccccc3n2)CC1 [sotrastaurin]
Procedure, shortened: as §1

[8] = compound: CN1CC[C@H](c2c(O)cc(O)c3c(=O)cc(-c4ccccc4Cl)oc23)[C@H](O)C1 [alvocidib]
Procedure, shortened: as §1

[9] = compound: CNC(=O)c1ccc(Nc2ncc(C(F)(F)F)c(NCc3nccnc3N(C)S(C)(=O)=O)n2)cc1 [defactinib]
Procedure, shortened: as §1

[10] = compound: CNc1nc(-c2ccc3c(N)n[nH]c3c2)cc(N2C[C@@H](C(=O)NC3CCCCC3)CC[C@H]2C)n1
Procedure, shortened: as §1

[11] = compound: COC(=O)[C@H](CCSC)NC(=O)C1=C(C=C(C=C1)NC[C@H](CS)N)C2=CC=CC=C2
Procedure, shortened: as §1

[12] = compound: CCn1c(C(=O)N(C2CC2)C2CC2)cc2c3c(ncn3C)c(Nc3cc(C)n(C)n3)nc21
Procedure, shortened: as §1

[13] = compound: CN(CCOC1=CC=C(C=C1)C[C@H]2C(=O)NC(=O)S2)C3=CC=CC=N3 (racemic) [rosiglitazone]
Procedure, shortened: as §1

[14] = compound: CN1CCc2c(c3ccccc3n2Cc2ccc(C(=O)NO)cc2)C1 [Tubastatin A]
Procedure, shortened: as §1

[15] = compound: CNC(=O)C1=CC=CC=C1NC2=NC(=NC=C2Cl)NC3=C(C=C(C=C3)N4CCOCC4)OC
Procedure, shortened: as §1

[16] = compound: CC[C@H](C)N1C=C(C2=C(C=C(C=C21)C3=CN=C(C=C3)N4CCNCC4)C(=O)NCC5=C(C=C(NC5=O)C)C)C
Procedure, shortened: as §1

[17] = compound: CC[C@@H]1C(=O)N(C)c2cnc(Nc3ccc(C(=O)NC4CCN(C)CC4)cc3OC)nc2N1C1CCCC1
Procedure, shortened: as §1

[18] = compound: CNCc1ccc(-c2[nH]c3cc(F)cc4c3c2CCNC4=O)cc1 [rucaparib]
Procedure, shortened: as §1

[19] = compound: COC(=O)N[C@@H](C)CNc1nccc(-c2cn(C(C)C)nc2-c2cc(Cl)cc(NS(C)(=O)=O)c2F)n1 [encorafenib]
Procedure, shortened: as §1

[20] = compound: CC[C@H](C)[C@@H](C(=O)N[C@@H]([C@@H](C)O)C(=O)N[C@@H](CC(C)C)C(=O)[C@]1(CO1)C)NC(=O)[C@H]([C@@H](C)CC)N(C)C(=O)C [epoxomicin]
Procedure, shortened: as §1

Measured: log2 fold change

MED26 (UniProt O95402)
inactive: [1] 0.041 | [2] 0.188 | [3] -0.073 | [4] 0.108 | [5] 0.115 | [6] -0.133 | [7] 0.054 | [8] -0.126 | [9] -0.036 | [10] 0 | [11] -0.12

MBIP (UniProt Q9NS73)
inactive: [1] -0.166 | [12] -0.142 | [3] -0.053 | [13] -0.161 | [14] 0.009 | [15] -0.211 | [9] 0.107 | [11] 0.003

MEX3B (UniProt Q6ZN04)
inactive: [1] -0.22 | [16] 0.209 | [12] 0.162 | [13] -0.121 | [14] -0.183 | [15] -0.099

MED9 (UniProt Q9NWA0)
inactive: [17] 0.088 | [16] -0.112 | [2] -0.127 | [4] -0.069 | [5] 0.144 | [6] 0.074 | [18] 0.013 | [10] 0.027 | [19] -0.091

MDK (UniProt P21741)
inactive: [1] 0.362 | [16] -0.189 | [12] 0.02 | [2] -0.068 | [13] -0.045 | [4] 0.13 | [5] 0.162 | [6] -0.005 | [7] 0.144 | [8] 0.026 | [14] -0.117 | [15] 0.059 | [10] -0.125

MED11 (UniProt Q9P086)
inactive: [12] 0.017 | [14] -0.065 | [15] 0.014

MBD2 (UniProt Q9UBB5)
inactive: [1] -0.109 | [16] 0.019 | [20] -0.155 | [12] -0.081 | [2] -0.126 | [3] -0.022 | [13] 0.022 | [4] 0.058 | [5] -0.083 | [6] -0.071 | [7] -0.085 | [8] 0.028 | [14] -0.041 | [15] -0.323 | [9] -0.143 | [10] -0.006 | [11] 0.03

MASTL (UniProt Q96GX5)
inactive: [17] -0.02 | [16] 0.045 | [20] 0.113 | [3] -0.143 | [4] 0.081 | [6] 0.107 | [7] -0.12 | [15] 0.054 | [9] 0.037 | [18] -0.17 | [10] -0.055 | [19] 0.083 | [11] 0.079

MCTS2P, A0A3B3IRV3
inactive: [16] 0.008

MED29 (UniProt Q9NX70)
inactive: [1] -0.115 | [16] 0.055 | [4] -0.056 | [6] -0.033 | [15] 0.004 | [10] 0.001

MIB1 (UniProt Q86YT6)
inactive: [17] -0.04 | [20] 0.069 | [12] -0.076 | [2] 0.133 | [3] -0.059 | [13] 0 | [5] -0.258 | [7] 0.159 | [8] -0.034 | [14] -0.086 | [15] -0.043 | [9] -0.042 | [18] 0.14 | [19] -0.146 | [11] -0.105

MEGF9 (UniProt Q9H1U4)
inactive: [12] 0.051 | [2] 0.116 | [13] -0.296 | [5] 0.047 | [7] 0.087 | [8] 0.152 | [14] -0.038 | [15] 0.124

MED7 (UniProt O43513)
inactive: [1] 0.139 | [16] -0.287 | [20] 0.127 | [3] 0.021 | [4] -0.172 | [6] -0.026 | [7] 0.151 | [14] -0.145 | [15] -0.056 | [9] -0.015 | [10] -0.006 | [11] 0.012

MFAP3 (UniProt P55082)
inactive: [20] -0.054 | [3] -0.118 | [4] -0.008 | [6] 0.088 | [7] 0.019 | [14] 0.068 | [9] 0.306 | [10] 0.002 | [11] -0.189

MFSD12 isoform 3 (UniProt Q6NUT3)
inactive: [17] -0.005 | [2] -0.006 | [4] 0.075 | [5] -0.305 | [6] -0.154 | [7] -0.172 | [14] 0.031 | [15] 0.042 | [18] -0.14 | [10] -0.144 | [19] 0.196

MBNL2 (UniProt Q5VZF2)
inactive: [1] -0.083 | [12] 0.061 | [2] 0.018 | [5] -0.074 | [15] 0.037

Pulled one by one from above (2):
MFAP3 (UniProt P55082)
inactive: [20] -0.054 | [3] -0.118 | [4] -0.008 | [6] 0.088 | [7] 0.019 | [14] 0.068 | [9] 0.306 | [10] 0.002 | [11] -0.189

MCTS2P, A0A3B3IRV3
inactive: [16] 0.008

(listing goes on)

MFHAS1 (UniProt Q9Y4C4)
inactive: [2] -0.213 | [3] -0.117 | [13] -0.207 | [4] 0.174 | [5] 0.029 | [6] -0.012 | [8] -0.014 | [14] -0.04 | [9] -0.012 | [10] 0.115 | [11] -0.268

METTL25 (UniProt Q8N6Q8)
inactive: [1] -0.018 | [16] -0.081 | [20] -0.063 | [12] -0.171 | [2] 0.066 | [3] -0.046 | [13] 0.112 | [4] 0.062 | [5] -0.106 | [6] -0.158 | [7] 0.111 | [8] 0.142 | [15] -0.016 | [9] 0.002 | [10] -0.125 | [11] 0.104

MAU2 (UniProt Q9Y6X3)
inactive: [1] -0.05 | [12] -0.033 | [2] 0.014 | [3] -0.015 | [5] -0.058 | [7] -0.143 | [14] 0.019 | [15] 0.146 | [9] -0.099 | [11] -0.041

MBTPS2 (UniProt O43462)
inactive: [1] 0 | [16] 0.023 | [20] 0.003 | [12] 0.05 | [2] -0.177 | [3] 0.064 | [4] -0.04 | [5] -0.035 | [6] 0.15 | [8] -0.037 | [14] -0.108 | [15] -0.054 | [9] 0.093 | [10] 0.03 | [11] -0.016

METTL15 (UniProt A6NJ78)
inactive: [20] 0.518 | [13] 0.048 | [4] 0.1 | [6] -0.067 | [14] 0.076 | [10] 0.13

MEGF8 (UniProt Q7Z7M0)
inactive: [17] 0.197 | [16] -0.072 | [14] 0.029 | [18] -0.107 | [19] -0.052

MGRN1 isoform 2 (UniProt O60291)
inactive: [1] -0.115 | [2] -0.072 | [5] -0.07 | [14] 0.197 | [15] -0.054

METTL2B (UniProt Q6P1Q9)
inactive: [20] 0.017 | [2] 0.027 | [3] 0.055 | [4] 0.184 | [5] -0.003 | [6] -0.075 | [7] -0.186 | [8] 0.005 | [9] -0.034 | [10] 0.102 | [11] -0.326

MFSD6 (UniProt Q6ZSS7)
inactive: [16] -0.041 | [20] -0.077 | [12] 0.002 | [2] 0.004 | [3] 0.049 | [13] -0.005 | [4] -0.014 | [5] 0.043 | [6] -0.087 | [7] -0.072 | [8] -0.152 | [15] 0.157 | [9] 0.031 | [10] -0.088 | [11] -0.014

MEIS2 (UniProt O14770)
inactive: [1] -0.291 | [12] -0.097 | [2] -0.082 | [13] 0.14 | [4] 0.051 | [5] -0.279 | [6] -0.092 | [8] -0.169 | [15] -0.074 | [10] -0.017

MASP1 isoform 2 (UniProt P48740)
inactive: [2] -0.067 | [5] 0.32 | [7] 0.084 | [8] -0.008

METTL7B (UniProt Q6UX53)
inactive: [20] 0.034 | [12] -0.126 | [2] 0.106 | [5] 0.011 | [15] -0.011

MEF2C isoform 2 (UniProt Q06413)
inactive: [17] -0.222 | [20] -0.014 | [14] 0.015 | [18] -0.031 | [19] 0.13

Source: the supplement of paper PMC10849652
